The results are deposited in PubChem (AID912; NCATS, 2007).

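Uptake of anthrax lethal toxin into cultured cells, read by FRET (460/530 nm ratio) and reported from the 460 nm channel; the cell line is not named here. Each compound was tested as a concentration series from about 0.0005 to 40 µM. The number is the fitted AC50 of the 460 nm signal alone; lower values mean a more potent effect. A falling signal goes with compounds filed as inhibitors or cytotoxic, a rising one with activators or fluorescent compounds (inferred from the filed classes).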

Values are in µM. Common to all entries: measured here: 460 nm channel. Part of the compounds only, not a random draw; the main read-out is not listed here. Potencies fitted to partial, single-point or poorly fitting curves are rough. The first word of each remark tells which way the curve ran; it can be opposite to the aim of the assay.

| structure | AC50 (µM) | curve |
|---|---|---|
| `Cc1c(C#N)c2ccccc2n1CC(=O)NCCc1c[nH]c2ccccc12` | 2.512 | falling, partial curve |
| `Cc1ccsc1C(=O)OCC(=O)c1cc2ccccc2o1` | 25.12 | falling, partial curve, poor fit |
| `COc1cc(NCCCC(C)N)c2ncccc2c1` (centres undefined) | 15.85 | falling, partial curve |
| `COc1ccc(-c2n[nH]c(C(F)(F)F)c2-c2cc3ccccc3o2)c(O)c1` | 12.59 | falling, single point |
| `Cn1c(-c2ccc(Br)o2)nc2cc(Br)ccc21` | 0.01995 | falling, full curve |
| `COCCn1nnnc1C(c1ccc(OC)c(OC)c1)N1CCN(c2nc3ccccc3s2)CC1` (centres undefined) | 10 | rising, partial curve |
| `COc1ccc(-c2noc(CN(C)S(=O)(=O)c3ccc(Cl)cc3)n2)cc1OC` | 12.59 | falling, partial curve |
| `O=C(Cn1cnc2c(nnn2Cc2ccc(Cl)cc2)c1=O)N1CCN(c2ccccc2)CC1` | 10 | falling, single point |
| `C/C=C/COC(=O)c1[nH]c2c(c1C)C(=O)CC(c1ccco1)C2` (centres undefined) | 0.3981 | falling, full curve |
| `Nc1ccccc1C(=O)OCCc1ccccc1` | 15.85 | falling, partial curve, poor fit |
| `COC(=O)COC(=O)c1ccc(-n2nnnc2SC)cc1` | 12.59 | rising, single point |
| `CC(C)CN1CCC2(CC1)CCN(C(=O)c1cccc(F)c1)CC2` | 3.981 | rising, partial curve |
| `O=C(NCc1ccccc1Cl)C1CCN(C(=O)c2sccc2-n2cccc2)CC1` | 10 | falling, partial curve |
| `N#Cc1nc(COc2ccccc2F)oc1NCc1ccc(F)cc1` | 3.981 | falling, single point |
| `C=CCn1cc(C(=O)NCc2ccco2)c(=O)c2cc(S(=O)(=O)N3CCCCCC3)ccc21` | 10 | rising, partial curve |
| `COc1ccc(NC(=O)N2CCCC3(CCN(S(C)(=O)=O)CC3)C2)cc1` | 3.162 | falling, partial curve |
| `COc1ccccc1-c1nnc(NC(=O)C(C)SC2=NCCS2)s1` (centres undefined) | 19.95 | falling, single point |
| `c1ccc(Cn2c(-c3cccs3)nc3nc4ccccc4nc32)cc1` | 0.7943 | rising, partial curve |
| `CCC(=O)Oc1ccc2c(C)c(Cl)c(=O)oc2c1` | 6.31 | rising, partial curve |
| `Fc1c(F)c(F)c(CSc2nc3ccccc3[nH]2)c(F)c1F` | 7.943 | falling, partial curve |
| `CN(C1CCCCC1)S(=O)(=O)c1ccc2c(c1)c(=O)c(C(=O)NCCCN1CCCC1)cn2C` | 3.981 | falling, partial curve |
| `COc1cccc(Nc2ncc3nc(-c4cc(F)cc(F)c4)c(=O)n(C4CC4)c3n2)c1` | 6.31 | rising, partial curve |
| `COc1ccc(OC)c(C(c2nnnn2C2CCCC2)N2CCN(c3ccc(F)cc3)CC2)c1` (centres undefined) | 5.012 | rising, single point |
| `Cc1noc(C)c1COC(=O)c1ccccc1Sc1ccccc1C#N` | 31.62 | falling, single point |
| `CCN(CC)CC(=O)Nc1ccc2c(c1)Nc1ccccc1CC2` | 5.012 | falling, full curve, poor fit |
| `COc1ccc(Oc2ncc3nc(CCc4ccccc4)c(=O)n(C[C@H]4CCCO4)c3n2)cc1` | 15.85 | falling, partial curve |
| `COc1cccc(Nc2ncc3nc(-c4cccs4)c(=O)n(-c4ccccc4)c3n2)c1` | 0.3981 | rising, full curve |
| `COc1cccc(-c2nc(NC3CC3)c3ccccc3n2)c1` | 31.62 | falling, single point |
| `CN(CCc1ccc(Cl)c(Cl)c1)C[C@@H](O)COc1ccc(NS(C)(=O)=O)cc1` | 12.59 | falling, partial curve, poor fit |
| `CS(=O)(=O)N(CC(=O)Nc1ccccc1C(=O)N1CCOCC1)c1ccc2c(c1)OCO2` | 12.59 | rising, single point |
| `COc1ccc2[nH]c(C(=O)c3ccccc3)cc2c1` | 0.3981 | falling, full curve |
| `COCc1cc(=O)n2[nH]c(C)nc2n1` | 1.585 | falling, full curve, poor fit |
| `COc1ccccc1CN1CCCC2(CCN(S(=O)(=O)c3ccccc3)CC2)C1` | 2.512 | falling, full curve |
| `N#CC1=C(N)C(C#N)(C#N)[C@H](c2ccncc2)[C@H]2CC3(CC=C12)OCCO3` | 1.995 | rising, full curve |
| `O=c1c2ccccc2c(/C=N/n2cnnc2)c(O)n1-c1ccccc1F` | 12.59 | rising, single point |
| `Cn1c(=O)c(-c2ccc(F)cc2)nc2cnc(Oc3ccccc3)nc21` | 25.12 | rising, single point |
| `Cn1cccc1C(=O)N1CCC2(CCCN(Cc3ccc(C#N)cc3)C2)CC1` | 25.12 | rising, single point |
| `c1ccc(-c2nc(NCCCN3CCOCC3)c3ccccc3n2)cc1` | 12.59 | falling, partial curve |
| `CC(C)c1nc(SCc2c(F)cccc2Cl)c2c(=O)n(C)c(=O)n(C)c2n1` | 2.512 | falling, full curve |
| `O=c1cc(CN2CCN(CCO)CC2)c2cc3c(cc2o1)CCC3` | 0.01995 | falling, full curve, poor fit |
| `O=C1c2ccccc2CC[C@H]1CNCCc1ccc(O)cc1` | 31.62 | falling, single point |
| `CCC1CCCCN1S(=O)(=O)c1ccc(C(=O)Nc2nnc(-c3cccs3)o2)cc1` (centres undefined) | 5.012 | rising, single point |
| `Nc1c(NCCC2=CCCCC2)c(=O)[nH]c(=O)n1Cc1ccccc1` | 19.95 | rising, single point |
| `Cc1ccc(C2=Nc3ccccc3S[C@@H](c3cccc([N+](=O)[O-])c3)C2)cc1` | 1 | falling, partial curve |
| `CCOc1ccc2nc(SCC(=O)NCc3ccco3)sc2c1` | 0.03162 | falling, full curve |
| `CCOC(=O)c1c(C)oc2cc(Br)c(OC(C)C(=O)OCC)cc12` (centres undefined) | 12.59 | falling, partial curve |
| `COc1ccc(-c2nc3cnc(N4CCNCC4)nc3n(C)c2=O)cc1` | 10 | rising, partial curve |

3 of the entries, repeated:

structure	AC50 (µM)	curve
COc1ccc(OC)c(C(c2nnnn2C2CCCC2)N2CCN(c3ccc(F)cc3)CC2)c1 (centres undefined)	5.012	rising, single point
COCc1cc(=O)n2[nH]c(C)nc2n1	1.585	falling, full curve, poor fit
Fc1c(F)c(F)c(CSc2nc3ccccc3[nH]2)c(F)c1F	7.943	falling, partial curve